Patent publication US20250152570A1 (AIR FORCE MEDICAL UNIVERSITY, priority 2022, published 2025)
At least one structure is not confirmed: it was looked up by name or label, or the drawing left a doubt.

Test system: KYSE450
Experiment: Sensitivity of ESCC cell lines to icotinib and afatinib
Assay type: cell-based
Conditions: KYSE450, high EGFR expression

For `CN(C)C/C=C/C(=O)Nc1cc2c(Nc3ccc(F)c(Cl)c3)ncnc2cc1O[C@H]1CCOC1` [afatinib], the “IC50 (sensitivity to afatinib)” value was “low”.
